Measurements reported in PubChem BioAssay AID652243 (Drosophila RNAi Screening Center, 2013).
The screen tested about 24,000 reagents; below is an unselected part of those with a known target gene and a result. Of all reagents, 246 (1%) were called active. 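Plates not normalised; calls are printed but the firefly/Renilla ratio behind them is not deposited; fold cut for lowering reported inconsistently.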 The raw values are shown without normalisation. The record does not give: the amount of reagent.

- Assay: 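Knock-downs that decrease or increase androgen receptor reporter signal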 (primary screen)
- System: Drosophila S2R+ cells
- Knock-down reagent: long dsRNA against Drosophila genes
- Duration: 72 h (48 h, then 24 h hormone)
- Conditions: synthetic androgen R1881 at 10 nM for 24 h
- Measurement: 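Per-well raw luminescence of the androgen-driven firefly reporter and of the Renilla control, two replicates each, without normalisation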
- Scale: firefly reporter light: higher = more light from androgen-responsive reporter; Renilla control light: higher = more constitutive control signal (cell number, transfection)
- Hit rule: 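Across duplicate plates, a knock-down whose log firefly/Renilla ratio shifted a set fold down or up from the GFP/LacZ control mean was a hit; the downward cut appears as both 1.5 and 3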
- Calls: active = hit: reporter lowered or raised; inactive = no hit

Target gene	amplicon	firefly reporter light, replicate 1	firefly reporter light, replicate 2	Renilla control light, replicate 1	Renilla control light, replicate 2	outcome
cert (ceramide transfer protein)	DRSC09674	1.10e6	9.63e5	1.96e6	2.19e6	inactive
cert (ceramide transfer protein)	DRSC36789					inactive
cert (ceramide transfer protein)	DRSC36790					inactive
Gp210 (Glycoprotein 210 kDa)	DRSC04861	4.65e5	3.09e5	2.52e6	2.13e6	inactive
Gp210 (Glycoprotein 210 kDa)	DRSC04900	8.33e5	7.63e5	2.44e6	2.41e6	inactive
Culd (CUB and LDLa domain)	DRSC10262	7.46e5	1.29e6	1.10e6	2.17e6	inactive
dup (double parked)	DRSC07088	1.40e5	1.21e5	8.22e5	8.22e5	inactive
CG17625	DRSC15249	1.92e5	2.36e5	2.82e6	2.41e6	inactive
Tdc1 (Tyrosine decarboxylase 1)	DRSC04942	86601	59224	1.31e5	1.89e5	inactive
l(2)41Ab (lethal (2) 41Ab)	DRSC21007	8.55e5	8.42e5	1.16e6	1.18e6	inactive
l(2)41Ab (lethal (2) 41Ab)	DRSC37749	7.82e5	6.59e5	1.71e6	1.75e6	inactive
Eogt (EGF-domain O-GlcNAc transferase)	DRSC00727	7.16e5	8.53e5	3.84e6	2.53e6	inactive
Eogt (EGF-domain O-GlcNAc transferase)	DRSC26180	2.86e5	2.06e5	3.98e5	4.09e5	inactive
ND-PDSW (NADH dehydrogenase (ubiquinone) PDSW subunit)	DRSC00715	1.05e6	1.17e6	1.33e6	1.37e6	inactive
CG1764	DRSC19779	2.18e5	1.38e5	1.01e6	7.68e5	inactive
RIC-3 (RIC3 acetylcholine receptor chaperone)	DRSC04243	1.01e6	8.06e5	2.49e6	2.23e6	inactive
RIC-3 (RIC3 acetylcholine receptor chaperone)	DRSC04543	2.46e5	3.63e5	1.96e6	2.27e6	inactive
CG17233	DRSC23352	7.63e5	8.74e5	9.54e5	9.70e5	inactive
Tasp1 (Taspase 1)	DRSC10495	54257	37550	4.53e5	4.25e5	inactive
qsm (quasimodo)	DRSC05896	3.11e5	3.33e5	6.26e5	3.92e5	inactive
qsm (quasimodo)	DRSC06393	61238	84516	7.97e5	1.17e6	inactive
qsm (quasimodo)	DRSC25212	5.22e5	5.23e5	3.86e5	4.92e5	inactive
XRCC1	DRSC18729	57549	69300	6.07e5	8.27e5	inactive
XRCC1	DRSC28480	4.38e5	4.87e5	1.44e6	1.75e6	inactive

Just “Renilla control light, replicate 2” (4 entries from above):
l(2)41Ab (lethal (2) 41Ab) [DRSC37749] = 1.75e6
Eogt (EGF-domain O-GlcNAc transferase) [DRSC00727] = 2.53e6
Eogt (EGF-domain O-GlcNAc transferase) [DRSC26180] = 4.09e5
ND-PDSW (NADH dehydrogenase (ubiquinone) PDSW subunit) [DRSC00715] = 1.37e6
